Experimental data: PubChem BioAssay AID1224829 (NIAID, 2016)
Assay: 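Genes needed for LPS-driven NF-kappaB p65 nuclear entry in mouse macrophages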 (follow-up of hits). Cell system: mouse RAW264.7 G9 macrophage reporter cells. Knock-down reagent: single siRNA against mouse genes, 100 nM. Timing: 2 days of siRNA knock-down, then 40 min of LPS before fixing. Conditions: LPS (Salmonella minnesota R595) at 10 ng/ml. Read-out: 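High-content images after 40 min LPS exposure; GFP-p65 nucleus to surrounding ring signal ratio, normalised to plate median and non-targeting control wells, expressed as z-score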. Scale: p65 translocation z-score: higher = more nuclear NF-kappaB p65 after LPS. Active means: 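Active means the replicate-mean z-score lies beyond plus or minus 2, in either direction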. Calls: active = changed p65 translocation (either direction); inactive = no clear change.
Shown is a random part of about 3,800 reagents. 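Calls cover raised and lowered translocation; gene median uses one vendor's three siRNAs; qiagen siRNAs acted more weakly than ambion siRNAs.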 Reagents against one gene are numbered here. Not all columns of the deposit are shown.

Rnh1 (ribonuclease/angiogenin inhibitor 1) #1, siRNA vendor or control pool ambion single siRNA gave p65 translocation z-score, replicate mean 0.768; inactive.
With Rnh1 (ribonuclease/angiogenin inhibitor 1) #2, siRNA vendor or control pool ambion single siRNA, the values are p65 translocation z-score, replicate mean -2.4; active.
Rnh1 (ribonuclease/angiogenin inhibitor 1) #3, siRNA vendor or control pool ambion single siRNA gave p65 translocation z-score, replicate mean -1.95; inactive.
Rnh1 (ribonuclease/angiogenin inhibitor 1) #4, siRNA vendor or control pool qiagen single siRNA scored p65 translocation z-score, replicate mean 3.29; active.
With Rnh1 (ribonuclease/angiogenin inhibitor 1) #5, siRNA vendor or control pool qiagen single siRNA the deposit lists p65 translocation z-score, replicate mean 1.41; inactive.
Rnh1 (ribonuclease/angiogenin inhibitor 1) #6, siRNA vendor or control pool qiagen single siRNA gave p65 translocation z-score, replicate mean -1.18; inactive.
With Cyp2c65 (cytochrome P450, family 2, subfamily c, polypeptide 65) #1, siRNA vendor or control pool ambion single siRNA, the values are p65 translocation z-score, replicate mean -0.795; inactive.
For Cyp2c65 (cytochrome P450, family 2, subfamily c, polypeptide 65) #2, siRNA vendor or control pool ambion single siRNA, the entry reads p65 translocation z-score, replicate mean -0.353; inactive.
Cyp2c65 (cytochrome P450, family 2, subfamily c, polypeptide 65) #3, siRNA vendor or control pool ambion single siRNA showed p65 translocation z-score, replicate mean -5.01; active.
Cyp2c65 (cytochrome P450, family 2, subfamily c, polypeptide 65) #4, siRNA vendor or control pool qiagen single siRNA showed p65 translocation z-score, replicate mean 0.622; inactive.
With Cyp2c65 (cytochrome P450, family 2, subfamily c, polypeptide 65) #5, siRNA vendor or control pool qiagen single siRNA, the entry reads p65 translocation z-score, replicate mean 3.31; active.
Cyp2c65 (cytochrome P450, family 2, subfamily c, polypeptide 65) #6, siRNA vendor or control pool qiagen single siRNA showed p65 translocation z-score, replicate mean 0.707; inactive.
Birc2 (baculoviral IAP repeat-containing 2) #1, siRNA vendor or control pool ambion single siRNA showed p65 translocation z-score, replicate mean -7.08; active.
Birc2 (baculoviral IAP repeat-containing 2) #2, siRNA vendor or control pool ambion single siRNA scored p65 translocation z-score, replicate mean -5.28; active.
Birc2 (baculoviral IAP repeat-containing 2) #3, siRNA vendor or control pool ambion single siRNA gave p65 translocation z-score, replicate mean 2.2; active.
With Birc2 (baculoviral IAP repeat-containing 2) #4, siRNA vendor or control pool qiagen single siRNA, the entry reads p65 translocation z-score, replicate mean 2.15; active.
With Birc2 (baculoviral IAP repeat-containing 2) #5, siRNA vendor or control pool qiagen single siRNA, the entry reads p65 translocation z-score, replicate mean 0.918; inactive.
With Birc2 (baculoviral IAP repeat-containing 2) #6, siRNA vendor or control pool qiagen single siRNA, the values are p65 translocation z-score, replicate mean -1.44; inactive.
Scamp5 #1, siRNA vendor or control pool ambion single siRNA gave p65 translocation z-score, replicate mean 4.04; active.
Scamp5 #2, siRNA vendor or control pool ambion single siRNA scored p65 translocation z-score, replicate mean -0.546; inactive.
Scamp5 #3, siRNA vendor or control pool ambion single siRNA scored p65 translocation z-score, replicate mean -4.15; active.
For Scamp5 #4, siRNA vendor or control pool qiagen single siRNA, the entry reads p65 translocation z-score, replicate mean 0.454; inactive.
With Scamp5 #5, siRNA vendor or control pool qiagen single siRNA, the entry reads p65 translocation z-score, replicate mean -1.83; inactive.
For Scamp5 #6, siRNA vendor or control pool qiagen single siRNA the deposit lists p65 translocation z-score, replicate mean 0.0183; inactive.
With Tmem171 (transmembrane protein 171) #1, siRNA vendor or control pool ambion single siRNA, the values are p65 translocation z-score, replicate mean -10.7; active.
Tmem171 (transmembrane protein 171) #2, siRNA vendor or control pool ambion single siRNA scored p65 translocation z-score, replicate mean -6.09; active.
For Tmem171 (transmembrane protein 171) #3, siRNA vendor or control pool ambion single siRNA, the values are p65 translocation z-score, replicate mean -2.19; active.
With Tmem171 (transmembrane protein 171) #4, siRNA vendor or control pool qiagen single siRNA, the entry reads p65 translocation z-score, replicate mean -2.03; active.
With Tmem171 (transmembrane protein 171) #5, siRNA vendor or control pool qiagen single siRNA the deposit lists p65 translocation z-score, replicate mean -0.468; inactive.
Tmem171 (transmembrane protein 171) #6, siRNA vendor or control pool qiagen single siRNA scored p65 translocation z-score, replicate mean -0.0545; inactive.

Reformatted: results already given.
target | siRNA no. | siRNA vendor or control pool | p65 translocation z-score, replicate mean | call
Cyp2c65 (cytochrome P450, family 2, subfamily c, polypeptide 65) | 4 | qiagen single siRNA | 0.622 | inactive
Cyp2c65 (cytochrome P450, family 2, subfamily c, polypeptide 65) | 5 | qiagen single siRNA | 3.31 | active
